Sequences of proteins named here, by UniProt entry; tags and fusion partners are left off. A change or cut given only in a name is not applied to a line headed by its entry. Residues count along the entry.
UniProt Q56XV8, residues 33-575: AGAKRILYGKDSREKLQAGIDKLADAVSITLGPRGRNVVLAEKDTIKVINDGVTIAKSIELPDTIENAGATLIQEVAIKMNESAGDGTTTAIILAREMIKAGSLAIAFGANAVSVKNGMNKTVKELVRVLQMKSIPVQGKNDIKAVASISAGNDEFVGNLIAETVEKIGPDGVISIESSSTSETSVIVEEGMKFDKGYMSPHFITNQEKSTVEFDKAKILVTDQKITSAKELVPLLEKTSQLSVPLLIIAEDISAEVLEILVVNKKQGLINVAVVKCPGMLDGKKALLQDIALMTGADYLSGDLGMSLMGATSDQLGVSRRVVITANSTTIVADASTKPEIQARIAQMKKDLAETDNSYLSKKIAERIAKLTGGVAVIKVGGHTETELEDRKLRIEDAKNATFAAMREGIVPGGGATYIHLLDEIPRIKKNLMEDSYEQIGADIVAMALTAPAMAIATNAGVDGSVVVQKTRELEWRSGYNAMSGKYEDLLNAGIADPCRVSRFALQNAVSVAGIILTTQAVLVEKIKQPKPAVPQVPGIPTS
UniProt P21238, residues 47-586: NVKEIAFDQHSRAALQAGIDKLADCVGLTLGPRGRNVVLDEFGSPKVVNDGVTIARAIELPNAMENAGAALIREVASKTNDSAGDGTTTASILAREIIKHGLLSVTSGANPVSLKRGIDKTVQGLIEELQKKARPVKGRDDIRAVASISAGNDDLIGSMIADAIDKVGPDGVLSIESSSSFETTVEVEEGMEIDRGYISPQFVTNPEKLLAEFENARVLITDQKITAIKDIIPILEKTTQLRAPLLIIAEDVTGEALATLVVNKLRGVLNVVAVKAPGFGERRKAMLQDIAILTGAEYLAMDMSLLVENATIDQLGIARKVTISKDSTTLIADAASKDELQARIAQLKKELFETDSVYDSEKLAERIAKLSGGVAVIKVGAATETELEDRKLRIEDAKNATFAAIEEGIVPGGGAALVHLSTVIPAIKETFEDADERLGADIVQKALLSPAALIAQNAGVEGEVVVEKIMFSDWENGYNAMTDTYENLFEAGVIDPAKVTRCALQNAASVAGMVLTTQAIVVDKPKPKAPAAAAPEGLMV
UniProt P21240: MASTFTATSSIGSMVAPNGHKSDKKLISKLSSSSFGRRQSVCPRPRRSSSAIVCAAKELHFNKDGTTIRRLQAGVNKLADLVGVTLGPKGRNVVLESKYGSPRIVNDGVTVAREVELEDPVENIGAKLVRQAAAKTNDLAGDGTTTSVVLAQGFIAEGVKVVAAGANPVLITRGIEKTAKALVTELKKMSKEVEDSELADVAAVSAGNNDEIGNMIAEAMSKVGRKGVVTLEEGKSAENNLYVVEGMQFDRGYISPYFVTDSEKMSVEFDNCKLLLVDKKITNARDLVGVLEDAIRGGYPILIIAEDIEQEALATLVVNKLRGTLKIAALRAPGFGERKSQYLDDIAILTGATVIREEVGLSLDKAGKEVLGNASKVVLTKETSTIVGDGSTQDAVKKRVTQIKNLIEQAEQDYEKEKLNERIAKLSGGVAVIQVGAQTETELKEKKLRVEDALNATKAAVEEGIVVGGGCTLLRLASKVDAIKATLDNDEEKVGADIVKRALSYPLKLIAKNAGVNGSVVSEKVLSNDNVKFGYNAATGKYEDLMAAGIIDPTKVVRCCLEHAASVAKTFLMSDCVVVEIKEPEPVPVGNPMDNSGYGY
UniProt Q9LJE4: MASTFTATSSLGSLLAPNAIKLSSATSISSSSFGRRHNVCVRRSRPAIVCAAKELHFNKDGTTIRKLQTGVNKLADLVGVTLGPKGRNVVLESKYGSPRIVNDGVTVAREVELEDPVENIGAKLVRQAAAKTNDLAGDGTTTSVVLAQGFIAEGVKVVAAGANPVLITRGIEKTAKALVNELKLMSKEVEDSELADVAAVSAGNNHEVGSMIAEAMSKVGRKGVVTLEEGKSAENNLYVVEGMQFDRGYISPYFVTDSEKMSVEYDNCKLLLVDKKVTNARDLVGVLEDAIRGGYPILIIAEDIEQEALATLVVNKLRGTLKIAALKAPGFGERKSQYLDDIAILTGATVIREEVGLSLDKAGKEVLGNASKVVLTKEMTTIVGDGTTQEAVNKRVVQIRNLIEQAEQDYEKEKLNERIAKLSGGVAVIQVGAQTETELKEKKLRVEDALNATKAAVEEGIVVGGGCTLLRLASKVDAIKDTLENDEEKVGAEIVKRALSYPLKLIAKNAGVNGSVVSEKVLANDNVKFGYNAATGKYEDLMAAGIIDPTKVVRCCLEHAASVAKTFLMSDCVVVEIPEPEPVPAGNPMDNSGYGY
UniProt C0Z361: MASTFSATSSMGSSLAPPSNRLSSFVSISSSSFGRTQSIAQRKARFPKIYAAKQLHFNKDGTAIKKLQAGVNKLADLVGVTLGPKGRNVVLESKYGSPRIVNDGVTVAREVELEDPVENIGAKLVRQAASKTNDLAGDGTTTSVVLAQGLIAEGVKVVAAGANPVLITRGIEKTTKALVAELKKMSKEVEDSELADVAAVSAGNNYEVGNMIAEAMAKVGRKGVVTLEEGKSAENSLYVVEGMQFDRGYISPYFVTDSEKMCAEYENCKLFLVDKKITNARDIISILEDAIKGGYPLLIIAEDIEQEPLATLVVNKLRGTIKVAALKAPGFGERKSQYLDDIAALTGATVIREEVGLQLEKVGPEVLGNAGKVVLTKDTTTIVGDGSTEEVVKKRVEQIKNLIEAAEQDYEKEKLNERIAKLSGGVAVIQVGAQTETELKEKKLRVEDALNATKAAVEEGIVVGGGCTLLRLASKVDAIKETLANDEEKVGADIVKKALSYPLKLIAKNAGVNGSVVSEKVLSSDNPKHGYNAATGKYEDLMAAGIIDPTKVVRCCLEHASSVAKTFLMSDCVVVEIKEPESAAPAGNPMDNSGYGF

In PMC5636168:

Assays:
[1] = biological target: Recombinant CPNA2 (without the transit peptide) (Arabidopsis thaliana) (UniProt Q56XV8); assay: SEC; reconstitution: 15 μM Cpn60α, 15 μM Cpn60β and 10 μM Cpn20 in 50 mM Tris-HCl pH 8.0, 0.3 M NaCl, 10 mM MgCl2, 16 mM KCl, 2 mM DTT, 5 mM ATP, 2 h at 30°C; supernatant on an Enrich Size Exclusion Column 650, reconstituted Cpn60s collected; both purified
[2] = biological target: Recombinant CPNA1 (without the transit peptide) (Arabidopsis thaliana) (UniProt P21238); assay: as above

Row | binding [1] | binding [2] | Substance
1 | binds | binds | Recombinant CPNB1 (without the transit peptide) (from UniProt P21240)
2 | binds | binds | Recombinant CPNB2 (without the transit peptide) (from UniProt Q9LJE4)
3 | binds | – | Recombinant CPNB3 (without the transit peptide) (from UniProt C0Z361)

These are yes or no findings as the source states them, for the method shown. Binding can be weak; no strength is given.
